Whole data set: some 33,000 sequences, median “E-score (-0.5 to 0.5)” near -0.015, cut for the highest 2% near 0.3. This is one part of the list.
Target: T1, Abf1 (UniProt P14164)
T1 sequence: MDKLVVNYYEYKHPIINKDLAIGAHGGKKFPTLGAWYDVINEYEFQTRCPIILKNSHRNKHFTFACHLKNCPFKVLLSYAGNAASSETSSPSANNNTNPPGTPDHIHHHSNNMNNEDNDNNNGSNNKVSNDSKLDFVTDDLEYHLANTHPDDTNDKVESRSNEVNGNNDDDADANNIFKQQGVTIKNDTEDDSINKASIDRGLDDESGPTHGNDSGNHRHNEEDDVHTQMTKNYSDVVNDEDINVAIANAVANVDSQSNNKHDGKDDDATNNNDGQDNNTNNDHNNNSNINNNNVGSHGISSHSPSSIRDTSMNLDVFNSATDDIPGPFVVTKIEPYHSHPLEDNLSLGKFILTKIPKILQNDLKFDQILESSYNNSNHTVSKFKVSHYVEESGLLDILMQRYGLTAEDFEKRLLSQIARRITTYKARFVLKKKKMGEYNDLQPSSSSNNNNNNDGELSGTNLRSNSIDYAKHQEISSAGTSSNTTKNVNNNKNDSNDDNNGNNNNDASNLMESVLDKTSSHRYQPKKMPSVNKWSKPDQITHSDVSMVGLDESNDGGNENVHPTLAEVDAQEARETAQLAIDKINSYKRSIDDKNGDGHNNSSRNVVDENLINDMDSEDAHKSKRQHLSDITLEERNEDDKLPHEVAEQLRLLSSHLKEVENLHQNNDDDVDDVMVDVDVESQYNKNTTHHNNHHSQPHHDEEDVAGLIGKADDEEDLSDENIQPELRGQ
Test: PBM E-score (8-mer binding enrichment) (E-score (-0.5 to 0.5)); higher = stronger / more preferred TF binding
Conditions: protein concentration: 200 nM; construct: GST-full length
How it was run: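 GST-tagged yeast TFs (full-length or DNA-binding domain) were made by PURExpress in vitro transcription/translation and applied at about 100-200 nM to universal all-10-mer Agilent arrays. The arrays were made double-stranded by primer extension, on fresh or once-stripped slides. Bound protein was detected with fluorescent anti-GST, and scans were normalised with masliner. Each ungapped eight-base word, pooled with its reverse complement, received an E-score (modified Wilcoxon-Mann-Whitney statistic) from the Universal PBM Analysis Suite.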

Going from ATCAAGAA to AGTATCCA, the “PBM E-score” value falls from 0.173 to 0.0876.

Compared with CGATGTGC, CAGTGTGA is higher in “PBM E-score” value: -0.0446 for the first, -0.0378 for the second.

Going from GTCAACGA to CGACCTGC, the “PBM E-score” value falls from 0.228 to -0.175.

First: GTGCGTTA
Second: TGATACAA
The “PBM E-score” value of the first is lower: -0.0272 for the first, 0.0376 for the second.

Compared with GATGGCCA, ACTCCCAC is lower in “PBM E-score” value: 0.00452 for the first, -0.193 for the second.

Going from GACAGGAA to CACCCTGA, the “PBM E-score” value falls from 0.0498 to -0.0828.

Going from ACCATTCT to CTGTATGA, the “PBM E-score” value falls from 0.0166 to -0.117.

Going from ACGTAGAG to CGATCCGA, the “PBM E-score” value rises from 0.0878 to 0.103.

Compared with CTGCGCAA, TAACTACA is higher in “PBM E-score” value: 0.00202 for the first, 0.107 for the second.

First: CAAAACAC
Second: CACCCTCC
The “PBM E-score” value of the first is higher: -0.0784 for the first, -0.232 for the second.

First: CCAGTAGC
Second: GATTGTTA
The “PBM E-score” value of the first is higher: 0.0513 for the first, -0.145 for the second.

Going from CCTCAGCG to AGTGGAAG, the “PBM E-score” value falls from -0.0992 to -0.17.

Compared with ATGAACTG, CCCGACTC is lower in “PBM E-score” value: 0.165 for the first, -0.13 for the second.

Going from AAACCTTC to AACGAGCT, the “PBM E-score” value rises from -0.0946 to 0.0649.

Going from AGTACAGC to AAAACCGC, the “PBM E-score” value rises from -0.0838 to -0.0413.

Going from ACTCCTCA to AGGTCGTA, the “PBM E-score” value rises from -0.131 to 0.171.

Compared with AACAAGTT, AGTGCAGA is higher in “PBM E-score” value: -0.122 for the first, -0.0854 for the second.

Going from AAACTCCA to ATACAATC, the “PBM E-score” value rises from -0.186 to -0.0056.

Going from ACGGGGCG to CATGGCGC, the “PBM E-score” value falls from 0.137 to -0.134.

First: CACGACGC
Second: CGCCCGCC
The “PBM E-score” value of the first is higher: 0.172 for the first, -0.0519 for the second.

Going from ACGACTAG to AACGCATG, the “PBM E-score” value falls from 0.0858 to -0.0545.

Compared with ATACATCG, CGCATCCG is lower in “PBM E-score” value: 0.0661 for the first, -0.188 for the second.

First: AGATTTGC
Second: ATCCATTA
The “PBM E-score” value of the first is lower: 0.0232 for the first, 0.125 for the second.

Compared with ACCATGCG, GGGTCGCA is lower in “PBM E-score” value: -0.11 for the first, -0.144 for the second.

Compared with ATCGCCAA, CGCCTATC is higher in “PBM E-score” value: -0.098 for the first, -0.025 for the second.

First: GCTCTTGA
Second: ATGTCCTC
The “PBM E-score” value of the first is lower: -0.288 for the first, 0.0704 for the second.

CATTGGTA and CTCACACC are the same in “PBM E-score” value: -0.133 for the first, -0.133 for the second.

Going from CGTGTGGC to AGTCATGG, the “PBM E-score” value rises from 0.0664 to 0.0847.

Going from ACTACCAG to CCCTGCTA, the “PBM E-score” value rises from -0.259 to -0.0427.

Compared with GCTATGCC, TCTATCAA is higher in “PBM E-score” value: -0.288 for the first, 0.0435 for the second.

First: AATAAAGT
Second: AGAGAATG
The “PBM E-score” value of the first is higher: 0.128 for the first, 0.121 for the second.

Going from AGACCGAG to GCGAATAA, the “PBM E-score” value rises from -0.243 to 0.0932.

Compared with AAGTCCAG, CCAGGGCC is lower in “PBM E-score” value: -0.0608 for the first, -0.22 for the second.

First: GGAATGGA
Second: ACTTAAGC
The “PBM E-score” value of the first is lower: -0.196 for the first, 0.121 for the second.

Going from CGGGACGA to AAAAAGAG, the “PBM E-score” value falls from 0.173 to -0.112.

First: AATTCTAC
Second: ACGATAAG
The “PBM E-score” value of the first is lower: 0.0797 for the first, 0.243 for the second.

Compared with ACGGGCTA, GCTTGCAA is higher in “PBM E-score” value: -0.128 for the first, 0.0274 for the second.

Compared with TAATCTCA, CCGCGACG is higher in “PBM E-score” value: 0.169 for the first, 0.32 for the second.

First: ACATGGCG
Second: AAGTTAAA
The “PBM E-score” value of the first is lower: -0.145 for the first, 0.143 for the second.

Going from ATAGGTAG to CTTCTGAA, the “PBM E-score” value rises from -0.0453 to 0.0735.

Compared with ATGCACCC, ACATGGAC is higher in “PBM E-score” value: -0.0372 for the first, 0.0355 for the second.

Going from AGCCCACA to CGGCATTC, the “PBM E-score” value rises from -0.0569 to 0.00161.

Compared with GGACAAAA, GGGGTATA is lower in “PBM E-score” value: -0.0523 for the first, -0.146 for the second.

First: CACTCGAC
Second: CTGGGAAG
The “PBM E-score” value of the first is higher: 0.104 for the first, -0.176 for the second.

Compared with AAAGGGCC, CAAATGTC is higher in “PBM E-score” value: -0.198 for the first, 0.103 for the second.

Going from TCATTTCA to CTGAGAAC, the “PBM E-score” value falls from 0.188 to 0.0128.

First: ATTGGCGC
Second: CGGATCTA
The “PBM E-score” value of the first is lower: -0.269 for the first, 0.0817 for the second.

Compared with CTCTTACA, CGGAGCAA is lower in “PBM E-score” value: 0.0135 for the first, -0.226 for the second.

Compared with ATGTAAAC, ACACGCCA is lower in “PBM E-score” value: 0.0851 for the first, -0.0721 for the second.

First: ACTCCCGC
Second: AAAGGACT
The “PBM E-score” value of the first is higher: -0.0985 for the first, -0.284 for the second.

Going from GCCCGCAA to GTTCGCCA, the “PBM E-score” value rises from -0.165 to -0.0997.

Going from ATCATCAT to GAATAGGA, the “PBM E-score” value falls from 0.376 to -0.00776.

Compared with CATCAAAA, AAACTAAG is higher in “PBM E-score” value: 0.0592 for the first, 0.207 for the second.

Compared with ACAGATAT, ACGTTTCG is lower in “PBM E-score” value: 0.177 for the first, 0.0198 for the second.

Compared with AGCTGTCC, ACTAAAAC is higher in “PBM E-score” value: -0.213 for the first, 0.0409 for the second.

First: TACGAAAA
Second: CGTCACCA
The “PBM E-score” value of the first is higher: 0.297 for the first, 0.258 for the second.

Going from AAACCTGC to CCCCGACC, the “PBM E-score” value falls from -0.168 to -0.261.

First: CGGCAACA
Second: AATAATGC
The “PBM E-score” value of the first is lower: -0.122 for the first, 0.146 for the second.

Going from GGGTGTCA to TACGCCTA, the “PBM E-score” value rises from 0.0147 to 0.0743.

Going from AGAGTTTG to TAGAGCGA, the “PBM E-score” value rises from -0.101 to 0.121.

Going from AGCCCAAC to CGTCGCAG, the “PBM E-score” value rises from -0.0367 to 0.176.

Going from ATCGACTC to AGTCATCA, the “PBM E-score” value rises from -0.136 to 0.135.

First: CAATGATG
Second: CCCGGTGA
The “PBM E-score” value of the first is higher: 0.106 for the first, 0.00135 for the second.

Compared with ACGTAACC, GGATGGTA is lower in “PBM E-score” value: -0.0289 for the first, -0.0893 for the second.

First: GGACATTA
Second: CATCTTGA
The “PBM E-score” value of the first is higher: 0.146 for the first, -0.173 for the second.

First: ACTGACCG
Second: AACGCATT
The “PBM E-score” value of the first is lower: -0.151 for the first, -0.0746 for the second.

Going from GGAGATAC to CTTCCCGA, the “PBM E-score” value rises from -0.127 to 0.0924.

Going from CGTGACAA to GGGACGAA, the “PBM E-score” value falls from 0.375 to 0.0455.

First: CAGGGCGA
Second: ATCTTGAG
The “PBM E-score” value of the first is lower: -0.0668 for the first, -0.0537 for the second.

First: CCCCTCCC
Second: ATGGCCCA
The “PBM E-score” value of the first is lower: -0.41 for the first, -0.127 for the second.

Going from TAAAAGTA to AATCAAGA, the “PBM E-score” value falls from 0.0929 to -0.0686.

Compared with ATGATTAG, ATAGGACG is higher in “PBM E-score” value: 0.114 for the first, 0.119 for the second.

Going from AGCCACCT to GGCTACCA, the “PBM E-score” value rises from -0.125 to 0.00728.

Compared with GATTTCAA, TGATAAAA is higher in “PBM E-score” value: -0.0594 for the first, 0.337 for the second.

Compared with GCCGTGAC, GCATGCGA is lower in “PBM E-score” value: 0.291 for the first, -0.0923 for the second.

Compared with GGTTCTGA, CGTTACGA is higher in “PBM E-score” value: -0.0844 for the first, 0.231 for the second.

Going from GCCGCCTA to CGTGGGGC, the “PBM E-score” value rises from -0.309 to 0.114.

Going from AAGCTAAT to AGTTATCG, the “PBM E-score” value rises from 0.0491 to 0.223.

Going from CTGTGTAC to ACCAACAT, the “PBM E-score” value falls from 0.14 to 0.0929.

Going from CTATCGAG to CCGTACTC, the “PBM E-score” value falls from 0.0966 to 0.0951.

Going from GGTCACCA to CCAGCGAA, the “PBM E-score” value falls from 0.109 to -0.164.

Compared with CAGATCCA, CAGGTGAA is lower in “PBM E-score” value: 0.0629 for the first, 0.0114 for the second.

Compared with CCAAAACC, ACTGTCTG is lower in “PBM E-score” value: -0.175 for the first, -0.193 for the second.

Compared with AAATAGTA, GTCAACAA is lower in “PBM E-score” value: 0.144 for the first, 0.0839 for the second.

Going from AGCCAGCC to CCCGAAAA, the “PBM E-score” value rises from -0.358 to -0.0085.

Compared with AGTGTGCC, CGGGGGTA is lower in “PBM E-score” value: -0.0277 for the first, -0.243 for the second.

— the supplement of paper PMC3334620
